# Assay results reported in patent US5185147A, “Short polypeptide sequences useful in the production and detection of antibodies against human immunodeficiency virus” (Cellular Products, Inc., priority 1988, dated 1993).
# Not every detail of the peptide structures is certain; ends, links or a residue may be inferred. Where a SMILES comes first, the peptide text is derived from it.
# Columns and labels:
# [1] = test system: MAb 32/1.24.89; assay: Competitive inhibition by soluble synthetic peptides of MAb 32/1.24.89 binding to solid-phase HIV; design: species or system murine
# [2] = test system: MAb 32/5.8.42; assay: Competitive inhibition by soluble synthetic peptides of MAb 32/5.8.42 binding to solid-phase HIV; design: species or system murine; conditions: soluble peptide competing with solid-phase HIV, biotin-labeled MAb
Compound,Effect on the reactivity of MAb 32/1.24.89 ([1]; soluble peptide competing with solid-phase HIV),Effectiveness relative to SP-17-B in competing MAb 32/1.24.89 ([1]; ratio of ID50 doses) [times],"ID50 (50% inhibition of antibody binding activity) versus MAb 32/1.24.89 ([1]; soluble peptide competing with solid-phase HIV, biotin-labeled MAb) [µg/mL]",ID50 (50% inhibition of antibody binding activity) versus MAb 32/5.8.42 [2] [µg/mL]
"CC[C@H](C)[C@H](NC(=O)[C@H](CCCCN)NC(=O)[C@H](CCC(=O)O)NC(=O)[C@H](Cc1c[nH]c2ccccc12)NC(=O)[C@H](CCCNC(=N)N)NC(=O)[C@H](CC(=O)O)NC(=O)[C@H](CC(C)C)NC(=O)[C@@H](N)CCC(=O)O)C(=O)O [SP-17-A, Glu Leu Asp Arg Trp Glu Lys Ile] (H-ELDRWEKI-OH)",no effect,,,
"CC[C@H](C)[C@H](NC(=O)[C@H](CCCCN)NC(=O)[C@H](CCC(=O)O)NC(=O)[C@H](Cc1c[nH]c2ccccc12)NC(=O)[C@H](CCCNC(=N)N)NC(=O)[C@H](CC(=O)O)NC(=O)[C@H](CC(C)C)NC(=O)[C@@H](N)CCC(=O)O)C(=O)N[C@@H](CCCNC(=N)N)C(=O)N[C@@H](CC(C)C)C(=O)N[C@@H](CCCNC(=N)N)C(=O)O [SP-17-A/B, Glu Leu Asp Arg Trp Glu Lys Ile Arg Leu Arg] (H-ELDRWEKIRLR-OH)",,~500,6.03,0.4
